The list is a part of this screen's results and no random one: it is rich in T/C values a quarter to a half above the control, in often repeated tests (any T/C) and in doses without a T/C. Further doses and runs are listed elsewhere. T/C gives the treated animals as a percentage of the vehicle group. Some entries give survivors of the animals treated and no T/C: the source files T/C as zero there, which appears to mark a toxic dose or a test without result, not a measured value. Some survivor counts are full or nearly so, which does not show that the dose was tolerated: survival well below the control is almost never listed, so the zero probably covers shortened survival too. Counts of survivors are from the toxicity check (mostly the fifth day) where no day follows; animals may have died later. Schedules are NCI's codes, taken here to give the interval after Q, in days (D) or hours (H), and the number of doses after X. For survival time, this PubChem deposit counts one and a half times the control or more as active, and values a quarter to a half above the control carry no call in these data; other NCI protocols may use other cut-offs. Some entries were tested several times; the values are given in rising order. Some T/C values are followed by the survivors on the day toxicity was checked, most often the fifth; where none is given, no animal had died by that day.
System: P388 leukemia ip, CD2F1 mice, survival T/C
Test: NCI In Vivo Anticancer Drug Screen. Data for tumor model P388 Leukemia (intraperitoneal) in CD2F1 (CDF1) mice
Conditions: T/C endpoint: median survival time, higher T/C = longer survival
[1] = dose: 200.0 mg/kg/injection, schedule: Q01DX009 (ip), vehicle: Klucel (hydroxypropylcellulose) (HPC)
[2] = dose: 200.0 mg/kg/injection, schedule: Q01DX009 (ip), vehicle: saline
[3] = dose: 1.5 mg/kg/injection, schedule: Q04DX003 (ip), vehicle: saline with Tween-80
[4] = dose: 400.0 mg/kg/injection, schedule: Q04DX003 (ip), vehicle: saline with Tween-80
[5] = dose: 240.0 mg/kg/injection, schedule: Q01DX005 (ip), vehicle: saline with Tween-80
[6] = dose: 200.0 mg/kg/injection, schedule: Q01DX005 (ip), vehicle: saline
[7] = dose: 400.0 mg/kg/injection, schedule: Q01DX009 (ip), vehicle: saline with Tween-80
[8] = dose: 200.0 mg/kg/injection, schedule: Q01DX009 (ip), vehicle: saline with Tween-80

Which T/C (dose: 100.0 mg/kg/injection, schedule: Q01DX007 (ip), vehicle: saline) does the source give for `CN(C)N=Nc1cccc(C(F)(F)F)c1` here?
Its T/C is 128 % of control.

What about the T/C (dose: 200.0 mg/kg/injection, schedule: Q01DX007 (ip), vehicle: saline) of the same compound?
The T/C was 139 % of control.

What about the survivor count (dose: 200.0 mg/kg/injection, schedule: Q01DX008 (ip), vehicle: saline with Tween-80) of the same compound?
The survivor count was 3 of 6.

And the survivor count (dose: 400.0 mg/kg/injection, schedule: Q01DX007 (ip), vehicle: saline)?
Its survivor count is 5 of 6.

`CCCCCCCCCCCOCC(=O)O` was tested. Which survivor count [1] did it give?
Its survivor count is 3 of 6.

For `Nc1ccc2cc(S(=O)(=O)O)cc(O)c2c1N=Nc1ccc(F)cc1`, which survivor count [2] is on record?
Its survivor count is 1 of 6.

What about the survivor count (dose: 400.0 mg/kg/injection, schedule: Q01DX009 (ip), vehicle: saline) of the same compound?
The survivor count was 0 of 6.

For `O=NN(CCCl)C(=O)Nc1c[nH]c(=O)[nH]c1=O`, which T/C [3] is on record?
The T/C was 145 % of control.

What about the survivor count (dose: 25.0 mg/kg/injection, schedule: Q04DX003 (ip), vehicle: saline with Tween-80) of the same compound?
Its survivor count is 6 of 6.

And the survivor count (dose: 44.0 mg/kg/injection, schedule: Q01DX009 (ip), vehicle: saline with Tween-80)?
The survivor count was 5 of 6.

What about the survivor count (dose: 50.0 mg/kg/injection, schedule: Q04DX003 (ip), vehicle: saline with Tween-80) of the same compound?
Its survivor count is 4 of 6.

What about the survivor count (dose: 67.0 mg/kg/injection, schedule: Q01DX009 (ip), vehicle: saline with Tween-80) of the same compound?
Its survivor count is 6 of 6.

What about the survivor count (dose: 100.0 mg/kg/injection, schedule: Q01DX009 (ip), vehicle: saline with Tween-80) of the same compound?
The survivor count was 5 of 6.

And the survivor count (dose: 100.0 mg/kg/injection, schedule: Q04DX003 (ip), vehicle: saline with Tween-80)?
Its survivor count is 3 of 6.

What about the survivor count (dose: 200.0 mg/kg/injection, schedule: Q04DX003 (ip), vehicle: saline with Tween-80) of the same compound?
The survivor count was 0 of 6.

And the survivor count [4]?
Its survivor count is 0 of 6.

`Cn1c(=O)c2c(ncn2CCNC(c2ccccc2)c2cccc(Cl)c2)n(C)c1=O` (stereo unspecified) was tested. Which survivor count (dose: 50.0 mg/kg/injection, schedule: Q01DX005 (ip), vehicle: other) did it give?
The survivor count was 0 of 5.

What about the survivor count (dose: 100.0 mg/kg/injection, schedule: Q01DX005 (ip), vehicle: other) of the same compound?
The survivor count was 1 of 5.

What about the survivor count (dose: 200.0 mg/kg/injection, schedule: Q01DX005 (ip), vehicle: other) of the same compound?
Its survivor count is 0 of 5.

How did the survivor count (dose: 400.0 mg/kg/injection, schedule: Q01DX009 (ip), vehicle: saline + Tween-80 + alcohol) turn out when `CCSSC(=Nc1ccccc1)OCC(C)C` was run?
The survivor count was 2 of 6.

For `CC1C=CC(c2ccccc2)C2C(=O)OC(=O)C12` (stereo unspecified), which survivor count [5] is on record?
The survivor count was 0 of 6.

What does the source list for `COC(=O)C(C)NP(=O)(N1CC1)N1CC1` (stereo unspecified)?
T/C (dose: 3.75 mg/kg/injection, schedule: Q01DX005 (ip), vehicle: saline with Tween-80): 141 % of control; T/C (dose: 3.75 mg/kg/injection, schedule: Q01DX005 (ip), vehicle: saline): 144 % of control; T/C (dose: 7.5 mg/kg/injection, schedule: Q01DX005 (ip), vehicle: saline with Tween-80): 128 % of control; survivor count (dose: 60.0 mg/kg/injection, schedule: Q01DX005 (ip), vehicle: saline): 2 of 6; survivor count (dose: 120.0 mg/kg/injection, schedule: Q01DX005 (ip), vehicle: saline): 0 of 6; survivor count (dose: 240.0 mg/kg/injection, schedule: Q01DX005 (ip), vehicle: saline): 0 of 6

Which survivor count [6] does the source give for `CCN(CC)CCOC1CCCCC1` here?
The survivor count was 0 of 6.

`CC(=O)OCC(=O)[C@@]1(O)CC[C@H]2[C@@H]3C[C@H](C)C4=CC(=O)C=C[C@]4(C)[C@@]3(F)[C@@H](O)C[C@@]21C` was tested. Which survivor count [7] did it give?
The survivor count was 6 of 6.

For `CN1CCN(C(=O)Nc2ccc(N=Nc3ccccc3)cc2)CC1`, which T/C (dose: 6.25 mg/kg/injection, schedule: Q01DX009 (ip), vehicle: saline sonified) is on record?
Its T/C is 125 % of control.

With `CN(C)c1ccc2c(c1)Cc1cc(N=C3C=CC(=O)O3)ccc1-2` as the compound, how does the survivor count [4] read?
Its survivor count is 2 of 6.

For `COc1ccc2c(c1OC)N(C)CC1=C2OC(C)(C)C2C1CC1(C)CC2c2c(c3ccc(OC)c(OC)c3n(C)c2=O)O1` (stereo unspecified), which survivor count (dose: 100.0 mg/kg/injection, schedule: Q01DX005 (ip), vehicle: Klucel (hydroxypropylcellulose) (HPC)) is on record?
Its survivor count is 6 of 6.

Which survivor count [1] does the source give for `NC(=O)OCCCCOC(N)=O` here?
The survivor count was 6 of 6.

For `CC(=O)/C(=C\c1ccc(Cl)cc1)C(=O)CCN(C)C`, which survivor count [6] is on record?
Its survivor count is 2 of 5.

What does the source list for `CC1(CCN2CCC(O)(c3ccc(Cl)cc3)CC2)Oc2ccccc2O1`?
survivor count (dose: 100.0 mg/kg/injection, schedule: Q01DX001 (ip), vehicle: saline with Tween-80): 0 of 6; survivor count (dose: 200.0 mg/kg/injection, schedule: Q01DX001 (ip), vehicle: saline with Tween-80): 0 of 6; survivor count (dose: 400.0 mg/kg/injection, schedule: Q01DX001 (ip), vehicle: saline with Tween-80): 0 of 6

For `C(=C\c1cc(-c2cc(/C=C/c3ccccc3)[nH]n2)n[nH]1)/c1ccccc1`, which survivor count [5] is on record?
Its survivor count is 3 of 6.

For `CC(C)C(=NC1CCCCC1)NC(C)(C)C`, which survivor count [8] is on record?
The survivor count was 0 of 6.

Which T/C (dose: 5.0 mg/kg/injection, schedule: Q04DX002 (ip), vehicle: saline) does the source give for `CN(C)CCNc1ccc(NCCNCCO)c2c1C(=O)c1ccccc1C2=O` here?
The T/C was 144 % of control.

Which survivor count (dose: 400.0 mg/kg/injection, schedule: Q04DX003 (ip), vehicle: saline) does the source give for `C#CCOC(=O)C(Cl)(Cl)Cl` here?
Its survivor count is 0 of 6.

Which results are given for `C=C(NC(=O)C(=C)NC(=O)c1csc(C2=NC3c4csc(n4)C4NC(=O)c5csc(n5)C(C(C)(O)C(C)O)NC(=O)C5CSC(=N5)/C(=C/C)NC(=O)C(C(C)O)NC(=O)c5csc(n5)C3(CC2)NC(=O)C(C)NC(=O)C(=C)NC(=O)C(=C)NC(=O)C(C(C)C)NC2C=Cc3c(C(C)O)cc(nc3C2O)C(=O)OC4C)n1)C(N)=O` (stereo unspecified)?
T/C (dose: 6.25 mg/kg/injection, schedule: Q01DX009 (ip), vehicle: saline): 127 % of control; T/C (dose: 12.5 mg/kg/injection, schedule: Q01DX009 (ip), vehicle: saline): 134 % of control; T/C (dose: 25.0 mg/kg/injection, schedule: Q01DX009 (ip), vehicle: saline): 131 and 138 % of control; T/C (dose: 50.0 mg/kg/injection, schedule: Q01DX009 (ip), vehicle: saline): 126 % of control; T/C (dose: 100.0 mg/kg/injection, schedule: Q01DX009 (ip), vehicle: saline): 149 % of control; T/C [2]: 142 % of control

Which results are given for `CCC(c1ccc(O)cc1)C(CC)c1ccc(OCCN)cc1` (stereo unspecified)?
T/C (dose: 120.0 mg/kg/injection, schedule: Q01DX005 (ip), vehicle: saline with Tween-80): 125 % of control; T/C [5]: 127 % of control; survivor count [5]: 4 of 6

With `COC(=O)Nc1cn2ccc(C(Cl)=C(Cl)Cl)cc2n1` as the compound, how does the survivor count (dose: 25.0 mg/kg/injection, schedule: Q01DX009 (ip), vehicle: Klucel (hydroxypropylcellulose) (HPC)) read?
Its survivor count is 4 of 6.

What about the T/C [1] of the same compound?
Its T/C is 137 % of control [5 of 6 alive].

How did the survivor count [1] turn out when `CC1CC=CC(=O)CC1` (stereo unspecified) was run?
The survivor count was 1 of 6.

`CC1=C(C)Cn2c(=O)c3cc4ccccc4cc3c(=O)n2C1` was tested. Which survivor count [1] did it give?
The survivor count was 6 of 6.

Which T/C [8] does the source give for `CC(/C=C/c1ccccc1)=Nc1ccccc1` here?
The T/C was 126 % of control.

What about the survivor count [7] of the same compound?
Its survivor count is 2 of 6.

How did the survivor count (dose: 100.0 mg/kg/injection, schedule: Q01DX005 (ip), vehicle: Klucel + Tween-80) turn out when `CC(=O)Oc1ccc(C(O)CN(C)OC(C)=O)cc1OC(C)=O` (stereo unspecified) was run?
The survivor count was 5 of 6.

And the survivor count (dose: 200.0 mg/kg/injection, schedule: Q01DX005 (ip), vehicle: Klucel + Tween-80)?
Its survivor count is 0 of 6.

For `O=C1CC(=O)C(Br)=C1Br`, which survivor count [3] is on record?
The survivor count was 5 of 6.

What about the survivor count (dose: 3.0 mg/kg/injection, schedule: Q04DX003 (ip), vehicle: saline with Tween-80) of the same compound?
Its survivor count is 0 of 6.

What does the source list for `Nc1ccccc1SC1CC(=O)N(c2ccc(Br)c(Cl)c2)C1=O` (stereo unspecified)?
survivor count (dose: 6.25 mg/kg/injection, schedule: Q01DX005 (ip), vehicle: saline with Tween-80): 6 of 6; survivor count (dose: 12.5 mg/kg/injection, schedule: Q01DX005 (ip), vehicle: saline with Tween-80): 6 of 6; survivor count (dose: 25.0 mg/kg/injection, schedule: Q01DX005 (ip), vehicle: saline with Tween-80): 6 of 6; survivor count (dose: 50.0 mg/kg/injection, schedule: Q01DX005 (ip), vehicle: saline with Tween-80): 6 of 6; survivor count (dose: 100.0 mg/kg/injection, schedule: Q01DX005 (ip), vehicle: saline with Tween-80): 6 of 6; survivor count (dose: 200.0 mg/kg/injection, schedule: Q01DX005 (ip), vehicle: saline with Tween-80): 6 of 6

From PubChem BioAssay AID330 (DTP/NCI, 2004)
